The target of the experiment is PBP4, endogenous in E. coli BW25113 cells (Escherichia coli (endogenous in BW25113)) (UniProt P24228). Description: cross-linking + co-IP.

The chains behind the UniProt entries cited, without tags or fusion partners. Residues count along the entry.
UniProt P24228, residues 21-477: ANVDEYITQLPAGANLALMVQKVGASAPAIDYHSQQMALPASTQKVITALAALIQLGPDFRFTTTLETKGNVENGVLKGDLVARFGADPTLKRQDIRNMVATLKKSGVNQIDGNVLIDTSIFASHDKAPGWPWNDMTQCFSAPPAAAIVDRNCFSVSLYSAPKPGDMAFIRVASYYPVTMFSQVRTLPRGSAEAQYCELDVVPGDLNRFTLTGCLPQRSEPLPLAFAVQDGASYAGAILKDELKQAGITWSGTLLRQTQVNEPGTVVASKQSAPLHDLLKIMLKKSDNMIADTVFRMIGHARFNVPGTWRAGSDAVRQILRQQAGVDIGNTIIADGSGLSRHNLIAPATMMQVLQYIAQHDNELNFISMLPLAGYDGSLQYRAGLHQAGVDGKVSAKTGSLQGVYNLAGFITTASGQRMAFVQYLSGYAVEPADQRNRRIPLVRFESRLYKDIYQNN

These are yes or no findings as the source states them, for the method shown. Binding seen in cells or lysates may run through a third protein. Some results given as binding are weak or reduced against the parent protein; the word gives no strength.

B1: LpoA, endogenous in E. coli BW25113 cells (protein, UniProt P45464 27-678)
chain: CGTHTPDQSTAYMQGTAQADSAFYLQQMQQSSDDTRINWQLLAIRALVKEGKTGQAVELFNQLPQELNDAQRREKTLLAVEIKLAQKDFAGAQNLLAKITPADLEQNQQARYWQAKIDASQGRPSIDLLRALIAQEPLLGAKEKQQNIDATWQALSSMTQEQANTLVINADENILQGWLDLQRVWFDNRNDPDMMKAGIADWQKRYPNNPGAKMLPTQLVNVKAFKPASTNKIALLLPLNGQAAVFGRTIQQGFEAAKNIGTQPVAAQVAAAPAADVAEQPQPQTVDGVASPAQASVSDLTGEQPAAQPVPVSAPATSTAAVSAPANPSAELKIYDTSSQPLSQILSQVQQDGASIVVGPLLKNNVEELLKSNTPLNVLALNQPENIENRVNICYFALSPEDEARDAARHIRDQGKQAPLVLIPRSSLGDRVANAFAQEWQKLGGGTVLQQKFGSTSELRAGVNGGSGIALTGSPITLRATTDSGMTTNNPTLQTTPTDDQFTNNGGRVDAVYIVATPGEIAFIKPMIAMRNGSQSGATLYASSRSAQGTAGPDFRLEMEGLQYSEIPMLAGGNLPLMQQALSAVNNDYSLARMYAMGVDAWSLANHFSQMRQVQGFEINGNTGSLTANPDCVINRNLSWLQYQQGQVVPVS
As to B1, the binding entry is “binds”.

B2: PBP1A, endogenous in E. coli BW25113 cells (enzyme, UniProt P02918 1-850)
chain: MKFVKYFLILAVCCILLGAGSIYGLYRYIEPQLPDVATLKDVRLQIPMQIYSADGELIAQYGEKRRIPVTLDQIPPEMVKAFIATEDSRFYEHHGVDPVGIFRAASVALFSGHASQGASTITQQLARNFFLSPERTLMRKIKEVFLAIRIEQLLTKDEILELYLNKIYLGYRAYGVGAAAQVYFGKTVDQLTLNEMAVIAGLPKAPSTFNPLYSMDRAVARRNVVLSRMLDEGYITQQQFDQTRTEAINANYHAPEIAFSAPYLSEMVRQEMYNRYGESAYEDGYRIYTTITRKVQQAAQQAVRNNVLDYDMRHGYRGPANVLWKVGESAWDNNKITDTLKALPTYGPLLPAAVTSANPQQATAMLADGSTVALSMEGVRWARPYRSDTQQGPTPRKVTDVLQTGQQIWVRQVGDAWWLAQVPEVNSALVSINPQNGAVMALVGGFDFNQSKFNRATQALRQVGSNIKPFLYTAAMDKGLTLASMLNDVPISRWDASAGSDWQPKNSPPQYAGPIRLRQGLGQSKNVVMVRAMRAMGVDYAAEYLQRFGFPAQNIVHTESLALGSASFTPMQVARGYAVMANGGFLVDPWFISKIENDQGGVIFEAKPKVACPECDIPVIYGDTQKSNVLENNDVEDVAISREQQNVSVPMPQLEQANQALVAKTGAQEYAPHVINTPLAFLIKSALNTNIFGEPGWQGTGWRAGRDLQRRDIGGKTGTTNSSKDAWFSGYGPGVVTSVWIGFDDHRRNLGHTTASGAIKDQISGYEGGAKSAQPAWDAYMKAVLEGVPEQPLTPPPGIVTVNIDRSTGQLANGGNSREEYFIEGTQPTQQAVHEVGTTIIDNGEAQELF
On to B2, for which the binding result is listed as “binds”.
